Laboratory results from patent US20100125055A1 (Dana-Farber, published 2010).
These are yes or no findings as the source states them, for the method shown. In cells and extracts the contact can be indirect. Some binding calls cover weakened binding; strength is not graded here.

Chains of the proteins cited; added tags and fusions are not shown. Lines headed by an entry give the natural chain unless they say otherwise; changes in a name come on top.
UniProt P15941: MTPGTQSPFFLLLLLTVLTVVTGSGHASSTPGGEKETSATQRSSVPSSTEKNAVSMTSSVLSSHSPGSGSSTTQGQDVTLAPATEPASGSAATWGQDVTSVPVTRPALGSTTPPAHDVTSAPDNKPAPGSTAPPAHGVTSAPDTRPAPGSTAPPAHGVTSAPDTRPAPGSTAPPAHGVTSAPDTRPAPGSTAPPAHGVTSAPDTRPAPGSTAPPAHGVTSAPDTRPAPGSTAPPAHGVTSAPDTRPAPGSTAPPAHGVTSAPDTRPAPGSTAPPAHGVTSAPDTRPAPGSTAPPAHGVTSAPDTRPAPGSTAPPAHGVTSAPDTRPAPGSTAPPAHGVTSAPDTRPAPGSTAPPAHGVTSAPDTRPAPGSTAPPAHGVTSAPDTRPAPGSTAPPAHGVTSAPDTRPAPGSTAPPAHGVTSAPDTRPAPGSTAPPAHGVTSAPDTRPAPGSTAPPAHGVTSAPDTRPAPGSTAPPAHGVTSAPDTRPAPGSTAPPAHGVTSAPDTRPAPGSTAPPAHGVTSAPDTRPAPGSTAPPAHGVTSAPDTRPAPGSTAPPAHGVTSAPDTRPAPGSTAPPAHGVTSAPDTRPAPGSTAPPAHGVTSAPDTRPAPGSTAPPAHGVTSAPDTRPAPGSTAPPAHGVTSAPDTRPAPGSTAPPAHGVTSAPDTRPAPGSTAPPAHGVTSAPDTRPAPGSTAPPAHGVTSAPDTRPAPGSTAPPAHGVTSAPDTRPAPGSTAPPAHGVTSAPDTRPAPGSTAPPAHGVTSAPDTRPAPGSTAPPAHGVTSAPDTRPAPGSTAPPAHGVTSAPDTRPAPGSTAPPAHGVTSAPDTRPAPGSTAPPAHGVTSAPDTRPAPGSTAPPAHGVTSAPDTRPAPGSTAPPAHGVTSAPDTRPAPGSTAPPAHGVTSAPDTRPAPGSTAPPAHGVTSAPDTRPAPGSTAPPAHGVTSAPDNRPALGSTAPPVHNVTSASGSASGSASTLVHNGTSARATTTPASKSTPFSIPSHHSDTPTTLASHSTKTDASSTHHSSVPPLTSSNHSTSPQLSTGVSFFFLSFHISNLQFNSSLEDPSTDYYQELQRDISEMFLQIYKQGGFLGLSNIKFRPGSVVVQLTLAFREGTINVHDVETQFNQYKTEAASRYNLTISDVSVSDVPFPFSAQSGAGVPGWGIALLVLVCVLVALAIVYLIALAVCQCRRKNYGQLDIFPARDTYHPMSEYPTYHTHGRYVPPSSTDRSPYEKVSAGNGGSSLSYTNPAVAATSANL

Tests used:
Flag-MUC1-CD (human) = Flag-MUC1-CD (human) (UniProt P15941); experiment: co-immunoprecipitation from lysates of transfected 293 cells: IP anti-Flag, IB anti-GFP (loading: IP anti-Flag, IB anti-Flag); cells untreated or treated with 5 uM MUC1/CQC or MUC1/AQA for 3 d
GFP-MUC1-CD (human) = GFP-MUC1-CD (human) (UniProt P15941); experiment: anti-Flag coprecipitation from transfected 293 cells; interaction that the MUC1/CQC peptide disrupts

| binding (Flag-MUC1-CD (human)) | binding (GFP-MUC1-CD (human)) | Substance |
| --- | --- | --- |
| binds |  | GFP-MUC1-CD (from UniProt P15941 1184-1255) |
|  | binds | Flag-MUC1-CD (from UniProt P15941 1184-1255) |
